Among the data in publication PMC10110421 are binding values, retold here.

No constants are given. Whether binding was seen depends on the method and setting. Binding seen in cells or lysates may run through a third protein. A yes stands for co-enrichment or nearness to the bait. Other partners may have been found.

Experiment [1] concerns the target HA-tagged or GFP-tagged WDR60 stably expressed in hTERT-RPE1 cells (human) (UniProt Q8WVS4). The experiment in a line: affinity purification with mass spectrometry; hTERT-RPE1 cells stably expressing HA- or GFP-tagged WDR60 or WDR34, treated with 1 mM DSP cross-linker on ice, lysed (Igepal buffers), precipitated with anti-HA agarose or GFP-Trap agarose at 4°C; nano-LC MS/MS.

Experiment [2] concerns the target HA-tagged or GFP-tagged WDR34 stably expressed in hTERT-RPE1 cells (UniProt Q96EX3). The experiment is described as above.

For the molecule “IFT172 (endogenous, hTERT-RPE1) (from UniProt Q9UG01 1-1749)”, the binding entry in experiment [1] is reported as “binds”.

B1: IFT54 (endogenous, hTERT-RPE1) (protein, UniProt Q8TDR0 1-691)
chain: MNAAVVRRTQEALGKVIRRPPLTEKLLSKPPFRYLHDIITEVIRMTGFMKGLYTDAEMKSDNVKDKDAKISFLQKAIDVVVMVSGEPLLAKPARIVAGHEPERTNELLQIIGKCCLNKLSSDDAVRRVLAGEKGEVKGRASLTSRSQELDNKNVREEESRVHKNTEDRGDAEIKERSTSRDRKQKEELKEDRKPREKDKDKEKAKENGGNRHREGERERAKARARPDNERQKDRGNRERDRDSERKKETERKSEGGKEKERLRDRDRERDRDKGKDRDRRRVKNGEHSWDLDREKNREHDKPEKKSASSGEMSKKLSDGTFKDSKAETETEISTRASKSLTTKTSKRRSKNSVEGRKEDNISAKSLDSIVSGINNEPNQETTTSEIGTKEANINSTSISDDNSASLRCENIQPNPTEKQKGDSTSDAEGDAGPAGQDKSEVPETPEIPNELSSNIRRIPRPGSARPAPPRVKRQDSMEALQMDRSGSGKTVSNVITESHNSDNEEDDQFVVEAAPQLSEMSEIEMVTAVELEEEEKHGGLVKKILETKKDYEKLQQSPKPGEKERSLFESAWKKEKDIVSKEIEKLRTSIQTLCKSALPLGKIMDYIQEDVDAMQNELQMWHSENRQHAEALQQEQRITDCAVEPLKAELAELEQLIKDQQDKICAVKANILKNEEKIQKMVYSINLTSRR
Take B1: the binding result in experiment [2] and in experiment [1] was “binds” throughout.

B2: IFT70A (endogenous, hTERT-RPE1) (protein, UniProt Q86WT1 1-665)
chain: MAGLSGAQIPDGEFTALVYRLIRDARYAEAVQLLGRELQRSPRSRAGLSLLGYCYYRLQEFALAAECYEQLGQLHPELEQYRLYQAQALYKACLYPEATRVAFLLLDNPAYHSRVLRLQAAIKYSEGDLPGSRSLVEQLLSGEGGEESGGDNETDGQVNLGCLLYKEGQYEAACSKFSATLQASGYQPDLSYNLALAYYSSRQYASALKHIAEIIERGIRQHPELGVGMTTEGFDVRSVGNTLVLHQTALVEAFNLKAAIEYQLRNYEVAQETLTDMPPRAEEELDPVTLHNQALMNMDARPTEGFEKLQFLLQQNPFPPETFGNLLLLYCKYEYFDLAADVLAENAHLTYKFLTPYLYDFLDALITCQTAPEEAFIKLDGLAGMLTEQLRRLTKQVQEARHNRDDEAIKKAVNEYDETMEKYIPVLMAQAKIYWNLENYPMVEKVFRKSVEFCNDHDVWKLNVAHVLFMQENKYKEAIGFYEPIVKKHYDNILNVSAIVLANLCVSYIMTSQNEEAEELMRKIEKEEEQLSYDDPNRKMYHLCIVNLVIGTLYCAKGNYEFGISRVIKSLEPYNKKLGTDTWYYAKRCFLSLLENMSKHMIVIHDSVIQECVQFLGHCELYGTNIPAVIEQPLEEERMHVGKNTVTDESRQLKALIYEIIGWNK
B2: in experiment [1], the binding entry is “binds”.

B3: IFT88 (endogenous, hTERT-RPE1) (protein, UniProt Q13099 1-824)
chain: MMQNVHLAPETDEDDLYSGYNDYNPIYDIEELENDAAFQQAVRTSHGRRPPITAKISSTAVTRPIATGYGSKTSLASSIGRPMTGAIQDGVTRPMTAVRAAGFTKAALRGSAFDPLSQSRGPASPLEAKKKDSPEEKIKQLEKEVNELVEESCIANSCGDLKLALEKAKDAGRKERVLVRQREQVTTPENINLDLTYSVLFNLASQYSVNEMYAEALNTYQVIVKNKMFSNAGILKMNMGNIYLKQRNYSKAIKFYRMALDQVPSVNKQMRIKIMQNIGVTFIQAGQYSDAINSYEHIMSMAPNLKAGYNLTICYFAIGDREKMKKAFQKLITVPLEIDEDKYISPSDDPHTNLVTEAIKNDHLRQMERERKAMAEKYIMTSAKLIAPVIETSFAAGYDWCVEVVKASQYVELANDLEINKAVTYLRQKDYNQAVEILKVLEKKDSRVKSAAATNLSALYYMGKDFAQASSYADIAVNSDRYNPAALTNKGNTVFANGDYEKAAEFYKEALRNDSSCTEALYNIGLTYEKLNRLDEALDCFLKLHAILRNSAEVLYQIANIYELMENPSQAIEWLMQVVSVIPTDPQVLSKLGELYDREGDKSQAFQYYYESYRYFPCNIEVIEWLGAYYIDTQFWEKAIQYFERASLIQPTQVKWQLMVASCFRRSGNYQKALDTYKDTHRKFPENVECLRFLVRLCTDLGLKDAQEYARKLKRLEKMKEIREQRIKSGRDGSGGSRGKREGSASGDSGQNYSASSKGERLSARLRALPGTNEPYESSSNKEIDASYVDPLGPQIERPKTAAKKRIDEDDFADEELGDDLLPE
For the molecule B3, the binding result in experiment [1] was “binds”.
